This passage reports binding results from article PMC5240148.

Sequences of proteins named here, by UniProt entry; tags and fusion partners are left off.
UniProt Q99873: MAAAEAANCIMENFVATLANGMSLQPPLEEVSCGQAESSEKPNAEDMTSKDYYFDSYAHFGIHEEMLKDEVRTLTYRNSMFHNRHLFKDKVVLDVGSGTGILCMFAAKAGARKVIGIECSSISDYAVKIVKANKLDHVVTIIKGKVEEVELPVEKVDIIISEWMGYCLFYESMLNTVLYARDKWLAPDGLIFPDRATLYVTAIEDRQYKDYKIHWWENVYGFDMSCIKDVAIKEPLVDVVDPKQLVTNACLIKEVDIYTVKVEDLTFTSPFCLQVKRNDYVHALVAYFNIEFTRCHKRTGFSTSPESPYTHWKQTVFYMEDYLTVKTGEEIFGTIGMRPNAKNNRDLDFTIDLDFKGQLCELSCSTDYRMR
UniProt Q9JIF0: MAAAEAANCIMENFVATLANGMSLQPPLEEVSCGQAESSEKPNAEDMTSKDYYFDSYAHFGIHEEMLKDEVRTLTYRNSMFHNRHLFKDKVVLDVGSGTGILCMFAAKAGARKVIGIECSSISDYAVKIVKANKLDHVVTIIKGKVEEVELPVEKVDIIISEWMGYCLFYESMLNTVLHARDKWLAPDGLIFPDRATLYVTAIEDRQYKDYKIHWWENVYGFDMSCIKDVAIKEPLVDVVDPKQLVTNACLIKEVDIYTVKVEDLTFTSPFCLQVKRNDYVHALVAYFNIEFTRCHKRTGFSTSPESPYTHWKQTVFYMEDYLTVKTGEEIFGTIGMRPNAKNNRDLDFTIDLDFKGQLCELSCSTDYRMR

No constants are given. Whether binding was seen depends on the method and setting. Binding seen in cells or lysates may run through a third protein. Some results given as binding are weak or reduced against the parent protein; the word gives no strength. For some of these results: Where a sequence is shown, tags or fusion partners need not be part of it.

Assay [1] deals with T1, FLAG-tagged CIITA (class II transactivator) (UniProt P33076).
T1 sequence: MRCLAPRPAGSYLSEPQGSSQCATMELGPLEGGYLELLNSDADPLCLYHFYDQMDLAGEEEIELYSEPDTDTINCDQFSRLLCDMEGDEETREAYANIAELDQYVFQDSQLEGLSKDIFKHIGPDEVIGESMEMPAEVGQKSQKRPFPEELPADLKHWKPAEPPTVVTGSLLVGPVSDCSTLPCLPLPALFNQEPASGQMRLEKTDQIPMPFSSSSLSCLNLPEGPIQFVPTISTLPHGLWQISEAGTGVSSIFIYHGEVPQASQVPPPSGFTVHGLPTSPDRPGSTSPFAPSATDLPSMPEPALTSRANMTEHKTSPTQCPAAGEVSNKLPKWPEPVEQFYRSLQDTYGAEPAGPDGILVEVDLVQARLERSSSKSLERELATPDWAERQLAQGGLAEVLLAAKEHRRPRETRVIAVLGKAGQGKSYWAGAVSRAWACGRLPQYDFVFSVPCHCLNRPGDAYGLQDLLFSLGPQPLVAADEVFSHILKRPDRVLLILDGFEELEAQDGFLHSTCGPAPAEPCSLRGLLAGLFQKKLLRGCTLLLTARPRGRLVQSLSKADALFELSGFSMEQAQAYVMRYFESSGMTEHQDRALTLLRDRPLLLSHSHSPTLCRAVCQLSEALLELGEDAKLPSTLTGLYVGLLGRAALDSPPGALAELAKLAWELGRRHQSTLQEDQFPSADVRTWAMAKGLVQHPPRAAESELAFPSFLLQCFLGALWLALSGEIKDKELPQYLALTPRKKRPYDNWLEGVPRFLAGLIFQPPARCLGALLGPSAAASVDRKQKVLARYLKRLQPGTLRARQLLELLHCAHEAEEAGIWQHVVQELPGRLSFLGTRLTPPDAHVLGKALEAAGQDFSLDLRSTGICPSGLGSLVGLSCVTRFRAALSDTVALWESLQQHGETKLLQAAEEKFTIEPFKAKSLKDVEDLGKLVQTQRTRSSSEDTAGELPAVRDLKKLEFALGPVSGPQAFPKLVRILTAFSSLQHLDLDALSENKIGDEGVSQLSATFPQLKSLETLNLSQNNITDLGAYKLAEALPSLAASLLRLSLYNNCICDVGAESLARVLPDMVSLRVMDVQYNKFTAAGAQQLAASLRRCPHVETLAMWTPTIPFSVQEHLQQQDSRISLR
The experiment in a line: co-IP; HEK293 cells transfected with GFP-PRMT1 with or without FLAG-CIITA; whole cell lysates in RIPA buffer (50 mM Tris pH7.4, 150 mM NaCl, 1% Triton X-100); FLAG-conjugated beads (M2) overnight, eluted with 3X FLAG peptide; blot with anti-FLAG or anti-GFP.

The target in assay [2] is T2, endogenous CIITA (class II transactivator) of mouse macrophage cells (RAW264) (mouse (endogenous in RAW264)) (UniProt P79621).
T2 sequence: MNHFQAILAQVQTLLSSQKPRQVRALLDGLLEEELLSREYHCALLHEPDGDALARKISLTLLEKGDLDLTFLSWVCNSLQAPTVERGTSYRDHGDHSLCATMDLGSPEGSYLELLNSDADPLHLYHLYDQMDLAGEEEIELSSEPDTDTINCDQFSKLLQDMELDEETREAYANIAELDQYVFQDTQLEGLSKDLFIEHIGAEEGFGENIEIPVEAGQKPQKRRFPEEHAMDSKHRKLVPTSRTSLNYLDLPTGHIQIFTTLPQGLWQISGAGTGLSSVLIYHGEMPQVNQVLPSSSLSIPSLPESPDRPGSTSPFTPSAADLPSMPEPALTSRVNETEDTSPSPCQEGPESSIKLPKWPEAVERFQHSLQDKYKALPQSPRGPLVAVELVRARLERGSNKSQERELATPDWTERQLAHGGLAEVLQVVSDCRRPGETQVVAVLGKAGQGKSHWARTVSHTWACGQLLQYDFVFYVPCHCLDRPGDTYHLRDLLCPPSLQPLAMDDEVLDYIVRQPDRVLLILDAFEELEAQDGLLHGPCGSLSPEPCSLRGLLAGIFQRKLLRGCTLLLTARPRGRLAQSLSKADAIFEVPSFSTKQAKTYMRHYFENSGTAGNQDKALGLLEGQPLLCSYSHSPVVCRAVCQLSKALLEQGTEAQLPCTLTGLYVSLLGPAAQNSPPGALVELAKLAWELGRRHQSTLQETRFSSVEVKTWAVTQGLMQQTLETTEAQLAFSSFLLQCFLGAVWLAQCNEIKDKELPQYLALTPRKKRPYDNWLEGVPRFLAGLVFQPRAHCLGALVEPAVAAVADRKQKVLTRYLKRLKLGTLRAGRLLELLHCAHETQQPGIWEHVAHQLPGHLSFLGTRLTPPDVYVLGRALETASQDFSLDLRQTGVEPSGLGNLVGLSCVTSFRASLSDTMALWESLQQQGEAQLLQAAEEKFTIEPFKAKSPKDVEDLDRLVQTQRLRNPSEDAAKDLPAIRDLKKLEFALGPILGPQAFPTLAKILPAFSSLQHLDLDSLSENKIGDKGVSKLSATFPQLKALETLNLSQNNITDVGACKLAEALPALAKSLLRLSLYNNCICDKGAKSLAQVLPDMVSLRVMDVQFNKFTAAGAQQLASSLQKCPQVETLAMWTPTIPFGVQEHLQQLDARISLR
The assay can be described thus: co-IP; endogenous proteins; RAW264 cells treated with IFN-γ for 24 hours; whole cell lysates immunoprecipitated with anti-CIITA (control IgG beside it).

The target of assay [3] is GFP-tagged PRMT1 (protein arginine methyltransferase 1) (UniProt Q99873). The experiment in a line: co-IP; reciprocal: HEK293 cells transfected with FLAG-CIITA with or without GFP-PRMT1; immunoprecipitation with anti-GFP; blot with anti-FLAG or anti-GFP.
In assay [4] the target is endogenous PRMT1 (protein arginine methyltransferase 1) of mouse macrophage cells (RAW264) (mouse (endogenous in RAW264)) (UniProt Q9JIF0). The assay can be described thus: co-IP; endogenous proteins; RAW264 cells treated with IFN-γ for 24 hours; whole cell lysates immunoprecipitated with anti-PRMT1 (control IgG beside it).

For the molecule “GFP-tagged PRMT1 (protein arginine methyltransferase 1) (from UniProt Q99873 1-371) (enzyme)”, the binding entry in assay [1] was “binds”.
Regarding “endogenous PRMT1 (protein arginine methyltransferase 1) of mouse macrophage cells (RAW264) (from UniProt Q9JIF0 1-371) (enzyme)”, the binding entry in assay [2] was “binds”.

B1: FLAG-tagged CIITA (class II transactivator) (protein, UniProt P33076 1-1130)
chain: MRCLAPRPAGSYLSEPQGSSQCATMELGPLEGGYLELLNSDADPLCLYHFYDQMDLAGEEEIELYSEPDTDTINCDQFSRLLCDMEGDEETREAYANIAELDQYVFQDSQLEGLSKDIFKHIGPDEVIGESMEMPAEVGQKSQKRPFPEELPADLKHWKPAEPPTVVTGSLLVGPVSDCSTLPCLPLPALFNQEPASGQMRLEKTDQIPMPFSSSSLSCLNLPEGPIQFVPTISTLPHGLWQISEAGTGVSSIFIYHGEVPQASQVPPPSGFTVHGLPTSPDRPGSTSPFAPSATDLPSMPEPALTSRANMTEHKTSPTQCPAAGEVSNKLPKWPEPVEQFYRSLQDTYGAEPAGPDGILVEVDLVQARLERSSSKSLERELATPDWAERQLAQGGLAEVLLAAKEHRRPRETRVIAVLGKAGQGKSYWAGAVSRAWACGRLPQYDFVFSVPCHCLNRPGDAYGLQDLLFSLGPQPLVAADEVFSHILKRPDRVLLILDGFEELEAQDGFLHSTCGPAPAEPCSLRGLLAGLFQKKLLRGCTLLLTARPRGRLVQSLSKADALFELSGFSMEQAQAYVMRYFESSGMTEHQDRALTLLRDRPLLLSHSHSPTLCRAVCQLSEALLELGEDAKLPSTLTGLYVGLLGRAALDSPPGALAELAKLAWELGRRHQSTLQEDQFPSADVRTWAMAKGLVQHPPRAAESELAFPSFLLQCFLGALWLALSGEIKDKELPQYLALTPRKKRPYDNWLEGVPRFLAGLIFQPPARCLGALLGPSAAASVDRKQKVLARYLKRLQPGTLRARQLLELLHCAHEAEEAGIWQHVVQELPGRLSFLGTRLTPPDAHVLGKALEAAGQDFSLDLRSTGICPSGLGSLVGLSCVTRFRAALSDTVALWESLQQHGETKLLQAAEEKFTIEPFKAKSLKDVEDLGKLVQTQRTRSSSEDTAGELPAVRDLKKLEFALGPVSGPQAFPKLVRILTAFSSLQHLDLDALSENKIGDEGVSQLSATFPQLKSLETLNLSQNNITDLGAYKLAEALPSLAASLLRLSLYNNCICDVGAESLARVLPDMVSLRVMDVQYNKFTAAGAQQLAASLRRCPHVETLAMWTPTIPFSVQEHLQQQDSRISLR
With B1, the binding entry in assay [3] is given as “binds”.

B2: endogenous CIITA (class II transactivator) of mouse macrophage cells (RAW264) (protein, UniProt P79621 1-1155)
chain: MNHFQAILAQVQTLLSSQKPRQVRALLDGLLEEELLSREYHCALLHEPDGDALARKISLTLLEKGDLDLTFLSWVCNSLQAPTVERGTSYRDHGDHSLCATMDLGSPEGSYLELLNSDADPLHLYHLYDQMDLAGEEEIELSSEPDTDTINCDQFSKLLQDMELDEETREAYANIAELDQYVFQDTQLEGLSKDLFIEHIGAEEGFGENIEIPVEAGQKPQKRRFPEEHAMDSKHRKLVPTSRTSLNYLDLPTGHIQIFTTLPQGLWQISGAGTGLSSVLIYHGEMPQVNQVLPSSSLSIPSLPESPDRPGSTSPFTPSAADLPSMPEPALTSRVNETEDTSPSPCQEGPESSIKLPKWPEAVERFQHSLQDKYKALPQSPRGPLVAVELVRARLERGSNKSQERELATPDWTERQLAHGGLAEVLQVVSDCRRPGETQVVAVLGKAGQGKSHWARTVSHTWACGQLLQYDFVFYVPCHCLDRPGDTYHLRDLLCPPSLQPLAMDDEVLDYIVRQPDRVLLILDAFEELEAQDGLLHGPCGSLSPEPCSLRGLLAGIFQRKLLRGCTLLLTARPRGRLAQSLSKADAIFEVPSFSTKQAKTYMRHYFENSGTAGNQDKALGLLEGQPLLCSYSHSPVVCRAVCQLSKALLEQGTEAQLPCTLTGLYVSLLGPAAQNSPPGALVELAKLAWELGRRHQSTLQETRFSSVEVKTWAVTQGLMQQTLETTEAQLAFSSFLLQCFLGAVWLAQCNEIKDKELPQYLALTPRKKRPYDNWLEGVPRFLAGLVFQPRAHCLGALVEPAVAAVADRKQKVLTRYLKRLKLGTLRAGRLLELLHCAHETQQPGIWEHVAHQLPGHLSFLGTRLTPPDVYVLGRALETASQDFSLDLRQTGVEPSGLGNLVGLSCVTSFRASLSDTMALWESLQQQGEAQLLQAAEEKFTIEPFKAKSPKDVEDLDRLVQTQRLRNPSEDAAKDLPAIRDLKKLEFALGPILGPQAFPTLAKILPAFSSLQHLDLDSLSENKIGDKGVSKLSATFPQLKALETLNLSQNNITDVGACKLAEALPALAKSLLRLSLYNNCICDKGAKSLAQVLPDMVSLRVMDVQFNKFTAAGAQQLASSLQKCPQVETLAMWTPTIPFGVQEHLQQLDARISLR
Regarding B2, in assay [4], the binding entry is listed as “binds”.
